# For at least one entry, the source does not settle the construct or the ends of the probe. Negatives hold for the conditions tested.
# Amino acid sequences for entries named in this document (tags omitted). A change or cut given only in a name is not applied to a line headed by its entry.
# UniProt Q91Z31: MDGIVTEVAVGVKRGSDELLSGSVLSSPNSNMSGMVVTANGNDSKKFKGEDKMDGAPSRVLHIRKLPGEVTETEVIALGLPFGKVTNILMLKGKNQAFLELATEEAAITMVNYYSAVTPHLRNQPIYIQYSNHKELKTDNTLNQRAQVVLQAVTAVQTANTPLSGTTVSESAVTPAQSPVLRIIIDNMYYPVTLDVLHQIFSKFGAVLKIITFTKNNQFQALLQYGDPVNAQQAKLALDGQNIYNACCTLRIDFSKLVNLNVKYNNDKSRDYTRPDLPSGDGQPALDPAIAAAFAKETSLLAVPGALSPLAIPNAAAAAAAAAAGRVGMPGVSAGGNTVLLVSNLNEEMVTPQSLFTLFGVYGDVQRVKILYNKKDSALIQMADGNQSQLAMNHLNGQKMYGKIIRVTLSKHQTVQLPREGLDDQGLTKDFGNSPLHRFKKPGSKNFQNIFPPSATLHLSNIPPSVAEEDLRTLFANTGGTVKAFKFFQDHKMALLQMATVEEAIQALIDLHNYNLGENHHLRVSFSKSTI
# Target: PTBP2 (nPTB) (UniProt Q91Z31)
# Assay: EMSA
# Details: 2 ug protein, 10 nM probe, 5 mM Mg2+, tRNA; 10 mM HEPES pH 7.9, 50 uM EDTA, 10% glycerol, 1 mM DTT, 5 mM MgCl2, 0.5 ug/ml BSA, 12.5 ng/ml tRNA, 15 min, room temperature; 8% native PAGE in TBE; recombinant protein; protein details: His; label: DIG; probe letters rebuilt from the primers and the genome; part of a longer molecule
row,Sequence,binding result
1,AAGCCUGCCAUUUUACCAGCAUUAUUGUAGUUUAAUGAUUGAAUGUAGACAGGGAUAUGCGUAUAGUUUUCAGUAUUAGUUCUAGAUAACACUAAAUUAACUACUGUUAGGUUGAGUAUGGUGGGGUCAG [Nova1 3'UTR F3],no binding
2,GAGUGUCCCCAUUAUACGUCAGAGUGUUUUAACCCCUCCUUUGCCCCAUUUGGAAGAAGGAUGUACUGUACUUUGCAGAAGUGAAGUUUUUCUGUUAUUAAUAUAUAAUUAUGCAAAUGAAUGCGACUAUG [Nova1 3'UTR F1],binds
3,"GAGUGUCCCCAUUAUACGUCAGAGUGUUUUAACCCCUGGUUUGCCCCAUUUGGAAGAAGGAUGUACUGUACUUUGCAGAAGUGAAGUUUUUCUGUUAUUAAUAUAUAAUUAUGCAAAUGAAUGCGACUAUG [Nova1 3'UTR mF1 (UCCU, CC to GG)]",no binding

# Source: article PMC4746625
